Experimental data: PubChem BioAssay AID504764 (Drosophila RNAi Screening Center, 2011)
Aim: 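Knock-downs that raise or lower a Notch target reporter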 (primary screen). System: Drosophila Kc167 cells. Reagent: long dsRNA against Drosophila genes. Time to read-out: about 5 days (4 days dsRNA, then 24 h after transfection). Conditions: transfection of constitutively active membrane-tethered Notch lacking the extracellular domain, read 24 h later. Detection: 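Firefly luciferase from an E(spl)m3 reporter with active Notch, plus control-promoter and uninduced reporter wells for normalisation; unnormalised counts, duplicate wells a and b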. Scale: induced reporter light, run 1, well a and induced reporter light, run 1, well b: higher = more light from the Notch target reporter with active Notch; control promoter light, run 1, well a and control promoter light, run 1, well b: higher = more light from the viral control promoter (cell number, transfection, viability); uninduced reporter light, run 1, well a: higher = more light from the Notch target reporter without active Notch. Call rule: 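Wells with low control signal or poorly matching duplicates excluded; duplicates averaged; per source plate, z beyond ±2 for induced/control log2 ratio or beyond ±1.8 for induced/uninduced marks a hit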. Meaning of the calls: active = modifier hit (raised or lowered Notch signal); inactive = not a hit.
In all, the deposit lists about 22,000 reagents; shown is a random part of those with a known target gene and a result. In the full data, 403 (1.9%) were called active. 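Unnormalised raw counts per well; ratio z-scores behind the hit calls and whether each hit raises or lowers signal are not deposited.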 A plus sign joins genes that one reagent is predicted to hit. Reagent sequences are not shown. The record does not give: the amount of reagent.

Grl62a [DRSC07963]
- induced reporter light, run 1, well a: 1.81e5
- induced reporter light, run 1, well b: 1.96e5
- control promoter light, run 1, well a: 1.93e5
- control promoter light, run 1, well b: 1.73e5
- uninduced reporter light, run 1, well a: 14880
- Call: inactive

Agpat2 [DRSC03532]
- induced reporter light, run 1, well a: 2.06e5
- induced reporter light, run 1, well b: 1.80e5
- control promoter light, run 1, well a: 2.13e5
- control promoter light, run 1, well b: 1.96e5
- uninduced reporter light, run 1, well a: 16550
- Call: inactive

beta4GalNAcTB [DRSC14869]
- induced reporter light, run 1, well a: 1.75e5
- induced reporter light, run 1, well b: 1.88e5
- control promoter light, run 1, well a: 2.25e5
- control promoter light, run 1, well b: 2.38e5
- uninduced reporter light, run 1, well a: 18315
- Call: inactive

sob [DRSC00838]
- induced reporter light, run 1, well a: 64660
- induced reporter light, run 1, well b: 57540
- control promoter light, run 1, well a: 37665
- control promoter light, run 1, well b: 44100
- uninduced reporter light, run 1, well a: 7332
- Call: inactive

CG42246 [DRSC17520]
- induced reporter light, run 1, well a: 96050
- induced reporter light, run 1, well b: 87390
- control promoter light, run 1, well a: 93710
- control promoter light, run 1, well b: 71680
- uninduced reporter light, run 1, well a: 6035
- Call: inactive

CG12128 [DRSC06104]
- induced reporter light, run 1, well a: 1.51e5
- induced reporter light, run 1, well b: 1.24e5
- control promoter light, run 1, well a: 1.11e5
- control promoter light, run 1, well b: 1.09e5
- uninduced reporter light, run 1, well a: 11675
- Call: inactive

CG6184 [DRSC15986]
- induced reporter light, run 1, well a: 1.81e5
- induced reporter light, run 1, well b: 1.30e5
- control promoter light, run 1, well a: 1.79e5
- control promoter light, run 1, well b: 2.02e5
- uninduced reporter light, run 1, well a: 12940
- Call: inactive

CG13527 [DRSC04169]
- induced reporter light, run 1, well a: 1.46e5
- induced reporter light, run 1, well b: 1.38e5
- control promoter light, run 1, well a: 1.68e5
- control promoter light, run 1, well b: 1.50e5
- uninduced reporter light, run 1, well a: 12005
- Call: inactive

CG14710 [DRSC14933]
- induced reporter light, run 1, well a: 1.22e5
- induced reporter light, run 1, well b: 1.16e5
- control promoter light, run 1, well a: 76590
- control promoter light, run 1, well b: 62745
- uninduced reporter light, run 1, well a: 7815
- Call: inactive

CR18275 + CR18166 + CG32817 [DRSC17249]
- induced reporter light, run 1, well a: 52790
- induced reporter light, run 1, well b: 63035
- control promoter light, run 1, well a: 84165
- control promoter light, run 1, well b: 81400
- uninduced reporter light, run 1, well a: 4555
- Call: inactive

alpha4GT1 [DRSC00488]
- induced reporter light, run 1, well a: 2.73e5
- induced reporter light, run 1, well b: 2.51e5
- control promoter light, run 1, well a: 2.36e5
- control promoter light, run 1, well b: 2.08e5
- uninduced reporter light, run 1, well a: 23490
- Call: inactive

DIP-zeta [DRSC02203]
- induced reporter light, run 1, well a: 1.06e5
- induced reporter light, run 1, well b: 1.33e5
- control promoter light, run 1, well a: 56250
- control promoter light, run 1, well b: 69925
- uninduced reporter light, run 1, well a: 17830
- Call: inactive

DIP-zeta [DRSC02204]
- induced reporter light, run 1, well a: 1.02e5
- induced reporter light, run 1, well b: 1.23e5
- control promoter light, run 1, well a: 75340
- control promoter light, run 1, well b: 1.02e5
- uninduced reporter light, run 1, well a: 16228
- Call: inactive

DIP-zeta [DRSC02205]
- induced reporter light, run 1, well a: 1.30e5
- induced reporter light, run 1, well b: 1.49e5
- control promoter light, run 1, well a: 73945
- control promoter light, run 1, well b: 1.02e5
- uninduced reporter light, run 1, well a: 21780
- Call: inactive
